Reference: the supplement of paper PMC10849652
Some of the results follow.

Sequences of proteins named here, by UniProt entry; tags and fusion partners are left off. A change or cut given only in a name is not applied to a line headed by its entry.
UniProt Q96QE2: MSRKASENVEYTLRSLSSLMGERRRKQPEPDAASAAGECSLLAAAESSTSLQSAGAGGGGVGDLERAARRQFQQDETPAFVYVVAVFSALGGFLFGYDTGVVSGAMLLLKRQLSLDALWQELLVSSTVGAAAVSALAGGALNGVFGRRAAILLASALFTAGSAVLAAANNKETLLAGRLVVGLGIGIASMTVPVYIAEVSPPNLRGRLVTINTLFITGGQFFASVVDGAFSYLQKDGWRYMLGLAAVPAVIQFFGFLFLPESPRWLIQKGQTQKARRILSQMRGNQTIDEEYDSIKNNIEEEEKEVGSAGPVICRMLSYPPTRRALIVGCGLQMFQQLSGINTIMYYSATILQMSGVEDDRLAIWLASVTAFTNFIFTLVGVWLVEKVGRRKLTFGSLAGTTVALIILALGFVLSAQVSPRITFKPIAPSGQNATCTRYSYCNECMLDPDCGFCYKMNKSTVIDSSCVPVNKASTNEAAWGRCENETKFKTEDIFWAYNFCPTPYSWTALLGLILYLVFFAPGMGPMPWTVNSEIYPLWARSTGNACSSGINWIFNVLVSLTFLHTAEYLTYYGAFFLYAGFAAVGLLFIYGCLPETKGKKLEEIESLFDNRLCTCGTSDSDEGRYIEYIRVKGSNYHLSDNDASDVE
UniProt P0CK96: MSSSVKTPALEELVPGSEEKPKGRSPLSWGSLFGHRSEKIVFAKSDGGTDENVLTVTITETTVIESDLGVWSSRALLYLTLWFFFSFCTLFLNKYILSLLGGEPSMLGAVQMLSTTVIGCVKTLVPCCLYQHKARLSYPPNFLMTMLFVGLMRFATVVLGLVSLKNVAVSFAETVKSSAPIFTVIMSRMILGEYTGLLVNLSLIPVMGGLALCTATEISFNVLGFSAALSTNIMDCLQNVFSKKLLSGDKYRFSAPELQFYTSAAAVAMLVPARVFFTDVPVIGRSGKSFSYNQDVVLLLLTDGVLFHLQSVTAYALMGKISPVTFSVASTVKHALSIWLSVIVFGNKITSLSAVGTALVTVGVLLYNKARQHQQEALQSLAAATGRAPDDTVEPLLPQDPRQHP
UniProt Q8IWA5: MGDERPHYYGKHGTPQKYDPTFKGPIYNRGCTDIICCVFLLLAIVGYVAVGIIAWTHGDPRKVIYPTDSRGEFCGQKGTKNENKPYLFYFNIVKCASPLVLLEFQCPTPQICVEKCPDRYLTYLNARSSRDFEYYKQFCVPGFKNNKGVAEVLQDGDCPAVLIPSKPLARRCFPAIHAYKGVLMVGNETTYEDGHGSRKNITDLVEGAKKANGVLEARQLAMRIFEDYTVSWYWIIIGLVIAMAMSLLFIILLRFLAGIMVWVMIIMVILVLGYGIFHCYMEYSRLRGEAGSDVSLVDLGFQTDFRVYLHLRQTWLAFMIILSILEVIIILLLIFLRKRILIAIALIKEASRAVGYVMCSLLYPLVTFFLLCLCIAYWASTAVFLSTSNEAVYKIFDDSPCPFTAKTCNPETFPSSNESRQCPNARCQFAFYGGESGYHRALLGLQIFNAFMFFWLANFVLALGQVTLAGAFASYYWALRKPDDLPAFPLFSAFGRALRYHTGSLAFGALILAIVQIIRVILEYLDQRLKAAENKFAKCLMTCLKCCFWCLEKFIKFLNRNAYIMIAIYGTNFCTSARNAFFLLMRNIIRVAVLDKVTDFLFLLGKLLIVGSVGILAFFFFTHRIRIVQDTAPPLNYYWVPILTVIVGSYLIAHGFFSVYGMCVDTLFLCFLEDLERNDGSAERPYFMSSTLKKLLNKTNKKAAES
UniProt Q96CQ1: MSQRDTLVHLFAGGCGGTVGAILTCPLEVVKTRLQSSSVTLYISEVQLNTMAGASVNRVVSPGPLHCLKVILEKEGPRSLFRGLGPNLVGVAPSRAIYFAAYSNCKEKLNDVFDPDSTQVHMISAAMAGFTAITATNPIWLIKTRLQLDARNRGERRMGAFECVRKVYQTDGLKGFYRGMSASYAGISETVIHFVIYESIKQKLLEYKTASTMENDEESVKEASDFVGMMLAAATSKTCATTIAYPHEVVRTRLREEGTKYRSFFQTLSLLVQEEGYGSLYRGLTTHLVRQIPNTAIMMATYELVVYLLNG
UniProt P12235: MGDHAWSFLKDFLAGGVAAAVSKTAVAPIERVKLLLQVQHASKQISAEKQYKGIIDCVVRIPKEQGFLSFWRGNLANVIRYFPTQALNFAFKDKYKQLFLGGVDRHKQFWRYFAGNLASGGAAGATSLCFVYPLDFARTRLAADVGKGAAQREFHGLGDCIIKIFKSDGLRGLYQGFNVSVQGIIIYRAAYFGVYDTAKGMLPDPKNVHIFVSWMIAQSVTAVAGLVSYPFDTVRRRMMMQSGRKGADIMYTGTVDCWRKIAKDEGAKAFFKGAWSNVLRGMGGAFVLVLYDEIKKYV
UniProt Q969S0: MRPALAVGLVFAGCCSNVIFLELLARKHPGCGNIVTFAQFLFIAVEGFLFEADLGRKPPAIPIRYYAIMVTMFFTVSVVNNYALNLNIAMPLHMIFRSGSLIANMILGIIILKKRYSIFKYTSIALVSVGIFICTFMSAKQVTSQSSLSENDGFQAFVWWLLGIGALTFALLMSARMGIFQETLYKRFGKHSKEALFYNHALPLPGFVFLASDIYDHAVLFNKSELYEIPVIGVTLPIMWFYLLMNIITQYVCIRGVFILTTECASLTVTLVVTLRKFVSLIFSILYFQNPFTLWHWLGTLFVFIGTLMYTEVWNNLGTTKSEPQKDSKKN
UniProt Q86VD7: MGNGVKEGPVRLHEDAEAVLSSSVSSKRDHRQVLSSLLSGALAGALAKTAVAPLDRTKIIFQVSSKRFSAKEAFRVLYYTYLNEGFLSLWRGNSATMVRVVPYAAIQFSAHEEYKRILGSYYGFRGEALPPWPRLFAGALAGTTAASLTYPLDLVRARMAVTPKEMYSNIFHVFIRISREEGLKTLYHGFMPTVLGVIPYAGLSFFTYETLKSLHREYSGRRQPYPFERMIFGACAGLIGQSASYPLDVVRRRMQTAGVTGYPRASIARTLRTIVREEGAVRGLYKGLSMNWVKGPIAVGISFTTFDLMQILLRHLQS
UniProt Q9BXP2: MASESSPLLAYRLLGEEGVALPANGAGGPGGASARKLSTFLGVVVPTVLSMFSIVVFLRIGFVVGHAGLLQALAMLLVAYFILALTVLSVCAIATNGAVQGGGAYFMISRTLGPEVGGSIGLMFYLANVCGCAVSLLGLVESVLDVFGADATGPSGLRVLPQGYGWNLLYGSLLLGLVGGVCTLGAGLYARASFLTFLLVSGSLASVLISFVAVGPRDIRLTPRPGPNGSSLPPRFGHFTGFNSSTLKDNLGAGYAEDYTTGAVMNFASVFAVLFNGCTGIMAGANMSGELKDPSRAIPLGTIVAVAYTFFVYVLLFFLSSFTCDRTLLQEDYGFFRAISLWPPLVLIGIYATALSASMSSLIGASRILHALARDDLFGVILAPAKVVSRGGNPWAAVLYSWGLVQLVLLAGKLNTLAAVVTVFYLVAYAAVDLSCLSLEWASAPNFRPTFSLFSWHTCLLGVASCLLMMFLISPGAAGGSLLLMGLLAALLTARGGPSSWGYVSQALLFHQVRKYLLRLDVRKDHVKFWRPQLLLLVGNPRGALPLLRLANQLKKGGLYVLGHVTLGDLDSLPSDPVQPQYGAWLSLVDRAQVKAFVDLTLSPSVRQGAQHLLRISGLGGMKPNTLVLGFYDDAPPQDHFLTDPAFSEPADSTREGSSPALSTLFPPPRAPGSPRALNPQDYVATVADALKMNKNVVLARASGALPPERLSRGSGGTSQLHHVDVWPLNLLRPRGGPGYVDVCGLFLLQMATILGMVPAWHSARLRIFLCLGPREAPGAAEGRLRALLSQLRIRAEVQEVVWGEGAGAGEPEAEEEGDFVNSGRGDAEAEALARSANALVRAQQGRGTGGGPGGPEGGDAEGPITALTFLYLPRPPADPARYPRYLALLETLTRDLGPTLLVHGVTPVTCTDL
UniProt Q9NRA2: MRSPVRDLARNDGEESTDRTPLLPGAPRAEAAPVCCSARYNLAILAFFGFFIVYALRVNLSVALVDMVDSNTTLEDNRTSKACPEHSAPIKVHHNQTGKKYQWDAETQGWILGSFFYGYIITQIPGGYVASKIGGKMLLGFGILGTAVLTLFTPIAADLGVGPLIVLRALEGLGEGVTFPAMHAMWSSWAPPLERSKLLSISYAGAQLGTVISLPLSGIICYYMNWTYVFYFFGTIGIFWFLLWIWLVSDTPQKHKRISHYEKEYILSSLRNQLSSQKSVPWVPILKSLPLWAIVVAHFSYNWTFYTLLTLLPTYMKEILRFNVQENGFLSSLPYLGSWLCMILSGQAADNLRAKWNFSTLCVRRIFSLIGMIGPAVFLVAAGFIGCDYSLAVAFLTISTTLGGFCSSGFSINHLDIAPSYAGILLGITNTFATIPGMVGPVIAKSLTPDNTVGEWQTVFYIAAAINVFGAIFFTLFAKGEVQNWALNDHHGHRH
UniProt Q9H2X9: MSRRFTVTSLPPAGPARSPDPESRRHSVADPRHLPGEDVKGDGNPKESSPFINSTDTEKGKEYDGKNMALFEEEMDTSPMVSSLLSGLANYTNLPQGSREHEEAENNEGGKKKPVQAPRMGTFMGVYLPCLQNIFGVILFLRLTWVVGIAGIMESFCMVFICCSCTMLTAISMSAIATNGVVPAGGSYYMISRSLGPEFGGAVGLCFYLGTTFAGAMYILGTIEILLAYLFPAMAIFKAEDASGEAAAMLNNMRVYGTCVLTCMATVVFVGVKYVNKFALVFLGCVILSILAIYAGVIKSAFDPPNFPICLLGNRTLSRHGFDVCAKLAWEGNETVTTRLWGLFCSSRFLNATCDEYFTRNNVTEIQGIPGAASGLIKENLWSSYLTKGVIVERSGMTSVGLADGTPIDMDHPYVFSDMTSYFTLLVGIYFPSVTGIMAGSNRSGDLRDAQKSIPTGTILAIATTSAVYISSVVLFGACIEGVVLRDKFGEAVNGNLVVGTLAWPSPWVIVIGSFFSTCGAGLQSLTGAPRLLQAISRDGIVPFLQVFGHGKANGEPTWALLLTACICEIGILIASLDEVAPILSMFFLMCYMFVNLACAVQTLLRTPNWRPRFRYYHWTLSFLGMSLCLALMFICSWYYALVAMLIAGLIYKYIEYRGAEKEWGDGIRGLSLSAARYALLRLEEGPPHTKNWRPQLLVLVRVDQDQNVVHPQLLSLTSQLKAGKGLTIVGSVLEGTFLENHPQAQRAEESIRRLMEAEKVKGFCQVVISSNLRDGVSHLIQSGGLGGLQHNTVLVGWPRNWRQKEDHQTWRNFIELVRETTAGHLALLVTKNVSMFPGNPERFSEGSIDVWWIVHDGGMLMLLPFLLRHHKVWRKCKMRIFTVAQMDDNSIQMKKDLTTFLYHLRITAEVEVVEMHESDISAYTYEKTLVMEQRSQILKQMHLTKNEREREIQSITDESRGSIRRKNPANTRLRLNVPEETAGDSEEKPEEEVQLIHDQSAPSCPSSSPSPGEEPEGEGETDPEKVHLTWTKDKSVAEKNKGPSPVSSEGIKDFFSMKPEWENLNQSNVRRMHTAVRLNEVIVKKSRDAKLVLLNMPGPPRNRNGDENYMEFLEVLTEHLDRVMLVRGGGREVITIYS
UniProt Q8IVJ1: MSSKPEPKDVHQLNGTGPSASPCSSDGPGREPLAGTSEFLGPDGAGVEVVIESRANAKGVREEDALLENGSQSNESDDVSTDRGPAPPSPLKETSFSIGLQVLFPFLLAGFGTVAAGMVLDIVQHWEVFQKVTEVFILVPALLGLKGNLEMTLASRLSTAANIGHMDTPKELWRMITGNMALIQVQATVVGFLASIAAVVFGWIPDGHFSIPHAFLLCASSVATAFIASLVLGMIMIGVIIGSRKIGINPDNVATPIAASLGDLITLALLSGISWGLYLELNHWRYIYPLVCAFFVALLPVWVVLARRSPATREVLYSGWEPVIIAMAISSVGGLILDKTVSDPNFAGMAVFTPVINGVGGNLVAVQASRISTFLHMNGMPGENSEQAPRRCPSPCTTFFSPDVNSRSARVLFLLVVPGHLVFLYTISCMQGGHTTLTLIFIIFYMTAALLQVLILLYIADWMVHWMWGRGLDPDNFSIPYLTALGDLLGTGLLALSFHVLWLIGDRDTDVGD

Assays:
Test in all cases: log2 fold change, soluble protein after heating vs DMSO (PISA); higher = thermal stabilisation; K562 cells, 10 uM, 30 min; active = over 0.2 and 3.5 SD of the protein, either way, in both replicates (recomputed)
[1] = compound: CS(=O)(=O)c1ccc(-c2cnc(N)c(C(=O)Nc3ccccc3)n2)cc1
How it was run: (§1)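 Quantification of soluble protein used TMTpro 16plex LC-MS/MS, with channel sums equalised. Samples were the supernatant after 21,000xg for 90 min of pooled aliquots from K562 cells (2×10^6 cells/mL) treated with 10 μM compound for 30 min, heated for 3 min over 48°C-58°C, and extracted in PBS with 0.5% NP-40 at 4°C. Values, from duplicates, describe thermal stability against control samples on a log2 fold-change scale.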

[2] = compound: C[C@@H]1COCCN1C2=NC(=NC(=C2)C3(CC3)S(=O)(=O)C)C4=C5C=CNC5=CC=C4
How it was run: as §1

[3] = compound: C[C@H](C1=CC=C(C=C1)C(=O)NC2=C3C=CNC3=NC=C2)N
How it was run: as §1

duvelisib = compound: C[C@H](Nc1ncnc2nc[nH]c12)c1cc2cccc(Cl)c2c(=O)n1-c1ccccc1 [duvelisib]
How it was run: as §1

gandotinib = compound: Cc1cc(Nc2cc(CN3CCOCC3)c3nc(C)c(Cc4ccc(Cl)cc4F)n3n2)n[nH]1 [gandotinib]
How it was run: as §1

tozasertib = compound: Cc1cc(Nc2cc(N3CCN(C)CC3)nc(Sc3ccc(NC(=O)C4CC4)cc3)n2)n[nH]1 [tozasertib]
How it was run: as §1

[4] = compound: Cc1cc(SCc2sc(-c3ccc(C(F)(F)F)cc3)nc2C)ccc1OCC(=O)O
How it was run: as §1

ispinesib = compound: Cc1ccc(C(=O)N(CCCN)[C@@H](c2nc3cc(Cl)ccc3c(=O)n2Cc2ccccc2)C(C)C)cc1 [ispinesib]
How it was run: as §1

bafetinib = compound: Cc1ccc(NC(=O)c2ccc(CN3CC[C@H](N(C)C)C3)c(C(F)(F)F)c2)cc1Nc1nccc(-c2cncnc2)n1 [bafetinib]
How it was run: as §1

[5] = compound: Cc1cccc(CC(=O)N2CCc3c2ccc(-c2cn(C)c4ncnc(N)c24)c3F)n1
How it was run: as §1

dasatinib = compound: Cc1nc(Nc2ncc(C(=O)Nc3c(C)cccc3Cl)s2)cc(N2CCN(CCO)CC2)n1 [dasatinib]
How it was run: as §1

[6] = compound: Cn1cc(-c2ccc3c(c2)CCN3C(=O)Cc2cccc(C(F)(F)F)c2)c2c(N)ncnc21
How it was run: as §1

[7] = compound: Cn1cc(-c2ccc3nnc(C(F)(F)c4ccc5ncccc5c4)n3n2)cn1
How it was run: as §1

tipifarnib = compound: Cn1cncc1[C@@](N)(c1ccc(Cl)cc1)c1ccc2c(c1)c(-c1cccc(Cl)c1)cc(=O)n2C [tipifarnib]
How it was run: as §1

crizotinib = compound: C[C@@H](Oc1cc(-c2cnn(C3CCNCC3)c2)cnc1N)c1c(Cl)ccc(F)c1Cl [crizotinib]
How it was run: as §1

doramapimod = compound: Cc1ccc(-n2nc(C(C)(C)C)cc2NC(=O)Nc2ccc(OCCN3CCOCC3)c3ccccc23)cc1 [doramapimod]
How it was run: as §1

mubritinib = compound: FC(F)(F)c1ccc(/C=C/c2nc(COc3ccc(CCCCn4ccnn4)cc3)co2)cc1 [mubritinib]
How it was run: as §1

nilotinib = compound: Cc1cn(-c2cc(NC(=O)c3ccc(C)c(Nc4nccc(-c5cccnc5)n4)c3)cc(C(F)(F)F)c2)cn1 [nilotinib]
How it was run: as §1

[8] = compound: Cc1nc(Nc2n[nH]c3c2CN(C(=O)N[C@H](CN(C)C)c2ccccc2)C3(C)C)c2sccc2n1
How it was run: as §1

[9] = compound: Cc1ncc(-c2ccnc(Nc3ccc(S(C)(=O)=O)cc3)n2)n1C(C)C
How it was run: as §1

| Target | log2 fold change [1] | log2 fold change [2] | log2 fold change [3] | log2 fold change (duvelisib) | log2 fold change (gandotinib) | log2 fold change (tozasertib) | log2 fold change [4] | log2 fold change (ispinesib) | log2 fold change (bafetinib) | log2 fold change [5] | log2 fold change (dasatinib) | log2 fold change [6] | log2 fold change [7] | log2 fold change (tipifarnib) | log2 fold change (crizotinib) | log2 fold change (doramapimod) | log2 fold change (mubritinib) | log2 fold change (nilotinib) | log2 fold change [8] | log2 fold change [9] |
| --- | --- | --- | --- | --- | --- | --- | --- | --- | --- | --- | --- | --- | --- | --- | --- | --- | --- | --- | --- | --- |
| SLC2A13 (UniProt Q96QE2) | inactive: -0.121 | inactive: 0.093 | inactive: -0.087 | inactive: 0.051 | inactive: 0.072 | inactive: 0.056 | inactive: -0.126 | inactive: -0.182 | inactive: -0.047 | inactive: -0.089 | inactive: 0.183 | inactive: 0.056 | inactive: -0.006 | inactive: 0.064 |  |  |  |  |  |  |
| SLC35E2B (UniProt P0CK96) | inactive: -0.046 |  | inactive: 0.312 |  |  |  |  | inactive: -0.227 | inactive: -0.057 |  |  | inactive: -0.066 | inactive: 0.036 | inactive: 0.104 | inactive: -0.127 | inactive: -0.079 | inactive: 0.055 |  |  |  |
| SLC44A2 isoform 2 (UniProt Q8IWA5) | inactive: 0.019 | inactive: 0.026 | inactive: -0.123 |  | inactive: -0.017 |  | inactive: -0.046 | inactive: 0.069 | inactive: 0.058 | inactive: -0.053 | inactive: 0.064 | inactive: 0.084 | inactive: -0.076 |  | inactive: 0.113 | inactive: 0.055 | inactive: 0.045 | inactive: 0.13 | inactive: 0.008 | inactive: 0.068 |
| SLC25A36 (UniProt Q96CQ1) | inactive: 0.016 | inactive: -0.061 | inactive: -0.011 |  | inactive: 0.313 |  | inactive: -0.089 | inactive: -0.021 | inactive: -0.049 | inactive: -0.003 | inactive: -0.136 | inactive: 0.033 | inactive: -0.004 | inactive: -0.075 | inactive: 0.067 | inactive: -0.027 | inactive: -0.078 | inactive: -0.01 | inactive: 0.182 | inactive: -0.138 |
| SLC25A4 (UniProt P12235) | inactive: 0.004 | inactive: 0.093 | inactive: 0.01 |  | inactive: -0.004 |  | inactive: -0.034 | inactive: 0.028 | inactive: -0.027 | inactive: -0.097 | inactive: 0.033 | inactive: 0.022 | inactive: -0.005 | inactive: 0.026 | inactive: 0.112 | inactive: -0.053 | inactive: -0.024 | inactive: -0.004 | inactive: -0.03 | inactive: -0.014 |
| SLC35B4 (UniProt Q969S0) | inactive: 0.016 | inactive: 0.048 |  |  |  |  |  |  | inactive: -0.12 |  |  |  |  |  | inactive: 0.256 | inactive: 0.038 | inactive: 0.032 | inactive: 0.027 | inactive: 0.016 | inactive: 0.1 |
| SLC25A42 (UniProt Q86VD7) | inactive: -0.054 | inactive: 0.015 | inactive: -0.055 |  | inactive: 0.09 |  | inactive: -0.003 | inactive: 0.054 | inactive: -0.081 | inactive: -0.069 | inactive: -0.025 | inactive: -0.022 | inactive: -0.049 | inactive: 0.017 | inactive: 0.028 | inactive: -0.004 | inactive: 0.051 | inactive: 0.009 | inactive: -0.024 | inactive: 0.048 |
| SLC12A9 (UniProt Q9BXP2) | inactive: -0.071 | inactive: -0.022 | inactive: 0.016 |  | inactive: -0.16 |  | inactive: -0.074 | active: -0.713 | inactive: -0.088 | inactive: 0.023 | inactive: 0.057 | inactive: 0.008 | inactive: -0.006 | inactive: 0.025 | active: -0.315 | inactive: -0.012 | inactive: 0.001 | inactive: -0.069 | inactive: 0.05 | inactive: -0.066 |
| SLC17A5 (UniProt Q9NRA2) | inactive: 0.062 |  |  |  |  |  |  | inactive: -0.226 |  |  |  |  | inactive: -0.055 | inactive: 0.169 | inactive: -0.036 | inactive: -0.037 |  |  |  |  |
| SLC12A5 (UniProt Q9H2X9) | inactive: 0.089 | inactive: 0.028 | inactive: 0.027 |  |  |  | inactive: 0.083 |  | inactive: 0.009 |  | inactive: -0.034 | inactive: 0.002 |  | inactive: 0.117 | inactive: 0.001 | inactive: 0.234 | inactive: -0.001 |  |  |  |
| SLC41A1 (UniProt Q8IVJ1) | inactive: -0.05 | inactive: -0.036 |  |  | inactive: 0.032 |  |  | inactive: -0.089 |  | inactive: 0.126 |  |  | inactive: 0.063 | inactive: -0.161 | inactive: 0.075 | inactive: -0.353 | inactive: 0.002 | inactive: 0.025 | inactive: -0.058 | inactive: -0.051 |

Two entries picked at random from those above, as already listed:

| Target | log2 fold change [1] | log2 fold change [2] | log2 fold change [3] | log2 fold change (duvelisib) | log2 fold change (gandotinib) | log2 fold change (tozasertib) | log2 fold change [4] | log2 fold change (ispinesib) | log2 fold change (bafetinib) | log2 fold change [5] | log2 fold change (dasatinib) | log2 fold change [6] | log2 fold change [7] | log2 fold change (tipifarnib) | log2 fold change (crizotinib) | log2 fold change (doramapimod) | log2 fold change (mubritinib) | log2 fold change (nilotinib) | log2 fold change [8] | log2 fold change [9] |
| --- | --- | --- | --- | --- | --- | --- | --- | --- | --- | --- | --- | --- | --- | --- | --- | --- | --- | --- | --- | --- |
| SLC17A5 (UniProt Q9NRA2) | inactive: 0.062 |  |  |  |  |  |  | inactive: -0.226 |  |  |  |  | inactive: -0.055 | inactive: 0.169 | inactive: -0.036 | inactive: -0.037 |  |  |  |  |
| SLC35E2B (UniProt P0CK96) | inactive: -0.046 |  | inactive: 0.312 |  |  |  |  | inactive: -0.227 | inactive: -0.057 |  |  | inactive: -0.066 | inactive: 0.036 | inactive: 0.104 | inactive: -0.127 | inactive: -0.079 | inactive: 0.055 |  |  |  |
